The whole screen tested about 140,000 compounds, of which about 4,300 (3.1%) were called active. The inconclusive results got no clear call from the source; some entries with a clear call stand among them for comparison.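 The calls were made as follows: active = readout at or below -70, meaning at least 70% loss of cells showing the perinucleolar compartment, a nuclear body marking cancer cells; inconclusive = readout between -30 and a set limit; inactive = the rest.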
Assay: High Content Assay for Compounds that inhibit the Assembly of the Perinucleolar Compartment;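 also: plate controls were DMSO wells for no effect and camptothecin positive control wells for full effect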
Details: PC3M PTB-GFP, PNC prevalence imaging, 16 h; at 10 µM; stronger effect = lower value
Procedure, shortened: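 Compounds are pinned in duplicate onto adhered PC3M cells stably expressing GFP-tagged PTB and incubated 16 h at 37 C. Cells are then fixed, nuclei stained with Hoechst, and PNC-positive cells counted.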

SMILES | activity change (PNC), negative = inhibition
O=C(O)CC(NC(=O)C(c1ccccc1)c1ccccc1)c1ccco1 (stereo not given) | inconclusive: -45.1%
CC1(C)CC(=O)C(C=NCCN2CCN(C(=O)c3ccccc3)CC2)=C(O)C1 | inactive: -21.5%
CCC(NC(=O)CCCc1ccccc1)c1ccccc1 (stereo not given) | inactive: -9.65%
O=C(CCCN1C(=O)/C(=C\c2ccco2)SC1=S)Nc1ccc2ccccc2c1 | inactive: -15.6%
CC(=O)c1c(C)[nH]c(C(=O)OCC(=O)N2c3ccccc3NC(=O)C2(C)C)c1C | inactive: 13%
O=C(N1CCOCC1)C1(c2ccccc2)CCCCC1 | active: -105%
Cc1nc(SCc2ccccc2)c([N+](=O)[O-])[nH]1 | active: -107%
COCCN1CC(O)=C(c2nc3ccccc3c(=O)[nH]2)C1=N | active: -100%
COc1ccc2cc3c(N)c(C(=O)N4CCCC4)sc3nc2c1 | inconclusive: -49.4%
C=CCn1c(-c2ccc(Cl)cc2)c[nH]c1=S | inactive: -6.6%
O=C(Nc1ccccc1C(=O)NCc1ccco1)c1ccco1 | inactive: 24.8%
CCCC(=O)Nc1ccc(Cl)c(NC(=S)NC(=O)c2ccco2)c1 | inconclusive: -48.1%
Cc1cc(C)n(-c2ccc(C(=O)OCC(=O)N(CC(C)C)C3CCS(=O)(=O)C3)cc2)n1 (stereo not given) | inconclusive: -30.3%
C#CCN(C)CCCOc1ccc(Cl)cc1Cl | inactive: 12.3%
CCOc1ccc2nc(SCC(=O)c3ccc(Cl)s3)sc2c1 | inconclusive: -34.9%
CCCCCCc1cc2cc(-c3nnc(-c4ccccc4)o3)c(=O)oc2cc1O | inconclusive: -58%
CCOC(=O)/C(C#N)=C/c1ccc(N2CCN(Cc3ccccc3)CC2)cc1 | inconclusive: -31.9%
CCc1cc2c(=O)[nH]c(Cc3ccc(Cl)cc3)nc2s1 | inconclusive: -35.2%
N=c1n(CCO)c2ccccc2n1CCOc1ccccc1 | inactive: -10.5%
Cc1cccc(C)c1N1CCN(S(=O)(=O)c2ccc(F)cc2)CC1 | inconclusive: -37.6%
O=C(O)CCc1ccc(-c2ccc(F)cc2)n1Cc1ccco1 | inconclusive: -33.5%
COc1cccc(/C=N/Nc2nn3cnnc3c3ccccc23)c1 | active: -80.5%
C=C(C)COc1ccc(-c2[nH]ncc2-c2ccc(OC)c(OC)c2)c(O)c1 | inconclusive: -70.2%

Single entries from above.
Value of CC(=O)c1c(C)[nH]c(C(=O)OCC(=O)N2c3ccccc3NC(=O)C2(C)C)c1C under activity change (PNC), negative = inhibition: inactive: 13%
Value of C#CCN(C)CCCOc1ccc(Cl)cc1Cl under activity change (PNC), negative = inhibition: inactive: 12.3%

Further records:

SMILES | activity change (PNC), negative = inhibition
O=C(/C=C/c1ccco1)Nc1ccccn1 | inconclusive: -47.1%
CN1CCc2c(sc3nc(SCC(N)=O)n(-c4ccccc4)c(=O)c23)C1 | inactive: 7.77%
O=C(NCc1ccccc1)c1ccc(S(=O)(=O)C(F)F)cc1 | inactive: 28.1%
CN(C)/C=C1/C(=O)N(c2ccc([N+](=O)[O-])cc2)N=C1c1ccccc1 | inconclusive: -37.5%
CSc1ccc(/C=C/C(=O)NC23CC4CC(CC(C4)C2)C3)cc1 | inactive: 11.8%
Cc1ccc(S(=O)(=O)Nc2ccccc2CNc2ccccn2)cc1 | inconclusive: -50.9%
COc1ccc(C(=O)Nn2cc3c(c2-c2ccccc2)c(=O)n(C)c(=O)n3C)cc1 | inactive: 5.39%
CCOC(=O)C1CCCN(C(=O)C2CCCN(S(=O)(=O)c3ccc4c(c3)oc(=O)n4C)C2)C1 (stereo not given) | inconclusive: -58.8%
CCN1CCCC1CNC(=O)c1cc2c(-c3ccc(Cl)cc3)nn(C)c2s1 (stereo not given) | inconclusive: -30.6%
CCN(CC)c1ccc2c(C)c(CN3CCOCC3)c(=O)oc2c1 | inconclusive: -53%
CCCCC(=O)Nc1cccc(NC(=O)c2ccccc2Br)c1 | inactive: 9.4%
NC(N)=N/N=C/c1cc([N+](=O)[O-])ccc1O | active: -115%
N#Cc1nc(-c2cccc3ccccc23)oc1N1CCCCC1 | inactive: 49.5%
CN(C)c1ccc(/C=N/NC(=O)C(O)(c2ccccc2)c2ccccc2)o1 | inconclusive: -44%
O=C(/C=C/c1ccco1)Nc1ccc(C(=O)N2CCOCC2)cc1 | inactive: 14.3%
CCOC(=O)C1=C(C)N=c2s/c(=C/c3ccco3)c(=O)n2C1c1cccc(OC)c1 (stereo not given) | inactive: -5.82%
Fc1ccc(-c2csc(N3CCC(c4ccccc4)C3)n2)cc1 (stereo not given) | inconclusive: -40.2%
CC(C)COC(=O)c1cc(-c2ccc(/C=N/n3cnnc3)o2)ccc1Cl | inconclusive: -61.4%
CCOCCCNC(=O)c1cn(CC(C)C)c(=O)c2cc(OC)c(OC)cc12 | inactive: 2.66%
Cc1cc(C)n(-c2nc(-c3ccc(Cl)cc3)cs2)n1 | inactive: 43.3%
COc1ccc(OCC(=O)Nc2cc(C)c(Cl)cc2OC)c([N+](=O)[O-])c1 | inconclusive: -36.4%
c1csc(-c2nn3c(Cn4nnc5ccccc54)nnc3s2)c1 | inactive: 15.4%
CC(C)(C)NCC1(CO)SC(N)=NC1=O (stereo not given) | inactive: -17%

Retrieved by compound from the list above, 3 records:
SMILES | activity change (PNC), negative = inhibition
CC(C)COC(=O)c1cc(-c2ccc(/C=N/n3cnnc3)o2)ccc1Cl | inconclusive: -61.4%
c1csc(-c2nn3c(Cn4nnc5ccccc54)nnc3s2)c1 | inactive: 15.4%
COc1ccc(C(=O)Nn2cc3c(c2-c2ccccc2)c(=O)n(C)c(=O)n3C)cc1 | inactive: 5.39%

The list continues.

SMILES | activity change (PNC), negative = inhibition
CCn1c(C(O)c2cccc(OC)c2OC)nc2ccccc21 (stereo not given) | inconclusive: -32.3%
COc1ccc(CCn2c(C)cc(C(=O)CSc3nc(N)cc(=O)[nH]3)c2C)cc1 | inactive: 46.5%
C/C(=C\c1ccccc1)C(=O)N1CCN(c2cccc(C(F)(F)F)c2)CC1 | active: -91%
COC(=O)C(CC(C)C)NC(=O)c1ccc(F)cc1 (stereo not given) | inconclusive: -50%
CC(=O)NC1C(=O)N=C(SCC(=O)NCc2ccccc2)NC1=O (stereo not given) | active: -100%
CC(C)NC(=O)NC(=O)COc1ncnc2sccc12 | inconclusive: -56.1%
O=C(Cc1cccs1)Nc1ccccc1C(=O)O | inconclusive: -56.1%
O=C(O)c1ccccc1C(=O)N1CC=C(c2ccccc2)CC1 | inconclusive: -30%
O=C1CCCc2nc(N3CCCCC3)sc21 | inconclusive: -58.7%
CCc1ccc2oc(C(=O)NCc3ccncc3)c(C)c2c1 | inconclusive: -42.2%
CCCCCCc1nnc(NC(=O)OCC)s1 | inconclusive: -32.3%
O=C(O)CCNc1nc(-c2ccccc2)nc2ccccc12 | inconclusive: -45.1%
Cc1ccc(-c2cc(C(=O)N3N=C(C(F)F)CC3(O)C(F)F)c3ccccc3n2)cc1C (stereo not given) | inconclusive: -32.1%
CCCn1c(CCNC(=O)c2cccs2)nc2ccccc21 | inconclusive: -47.6%
COc1ccc(CN(Cc2ccccn2)S(=O)(=O)c2ccc(-n3cnnn3)c(OC)c2)cc1 | inconclusive: -30.1%
S=C(N/N=C/c1ccccc1)N1CCOCC1 | inactive: 41.9%
CCOC(=O)C(C(=O)OCC)C(C)(C)/C(C)=N\Nc1ccc([N+](=O)[O-])cc1[N+](=O)[O-] | inconclusive: -33.6%
CC1(C)C(=O)OC(c2cccn2-c2ccc([N+](=O)[O-])cc2)C(C)(C)C1=O (stereo not given) | inactive: 18.7%
COC(=O)c1ccc(CSc2nc3ccccc3c(=O)n2Cc2ccco2)o1 | inconclusive: -45.7%
COC(=O)c1ccc(C2/C(=C(\O)c3ccc(OC)c(C)c3)C(=O)C(=O)N2c2cc(C)on2)cc1 (stereo not given) | inconclusive: -37.6%
O=C(c1cc(-c2ccco2)on1)N1CCc2ccccc2C1 | inactive: -27.1%
CCC(=O)NC1=C(NC(C)c2ccccc2)C(=O)c2ccccc2C1=O (stereo not given) | inactive: 33.3%
O=C(c1ccccc1)c1nn(-c2ccccc2)c(=O)cc1C(F)(F)F | inconclusive: -30.9%

SMILES | activity change (PNC), negative = inhibition
O=C(COc1ncnc2ccccc12)NCc1ccc2c(c1)OCO2 | inconclusive: -75.1%
N#CC1=C2SCCN2C(=O)C(C#N)C12CCCCC2 (stereo not given) | inconclusive: -36%
Cc1ccccc1CNc1nc(N)n(-c2ccccc2)n1 | inconclusive: -38.6%
CCCCNC(=S)Nc1ccc([N+](=O)[O-])cc1 | inconclusive: -62.2%
O=C(Nc1nc2cc3c(cc2s1)OCCO3)c1cccc(S(=O)(=O)N2CCOCC2)c1 | inconclusive: -77.1%
Cc1cc(C)c2cc(CN(CCO)C(c3nnnn3Cc3ccc(F)cc3)C(C)C)c(=O)[nH]c2c1 (stereo not given) | inactive: -30%
NC(=O)CSC1=Nc2ccccc2C2=NC(CCC(=O)NCc3ccc(F)cc3)C(=O)N12 (stereo not given) | inconclusive: -34.9%
CC(C(=O)Nc1cccnc1)N1C(=O)c2ccccc2C1=O (stereo not given) | inconclusive: -36.4%
COc1cc(C2=NOC(C(=O)NCc3ccco3)C2)cc(OC)c1OC (stereo not given) | inconclusive: -50.5%
C=CCn1c(N)c(C(=O)NCC2CCCO2)c2nc3ccccc3nc21 (stereo not given) | inconclusive: -53.2%
O=C(CN(c1ccc2c(c1)OCCO2)S(=O)(=O)c1ccccc1)NCc1ccc(Cl)cc1 | inconclusive: -38.7%
COc1ccc(/C=N/n2cnnc2SCCO)cc1OC | inconclusive: -63.9%
C=CCN1C(=O)/C(=C2/Sc3ccccc3N2C)SC1=Nc1c(C)n[nH]c1C | inconclusive: -45.2%
CC(C)(C)C(=O)[C@@H]1[C@@H]2C(=O)N(Cc3ccccc3)C(=O)[C@@H]2[C@H]2c3ccccc3C=CN12 | inconclusive: -79.4%
CCOC(=O)c1cccc(-n2c(C)cc(C=O)c2C)c1 | inconclusive: -73.5%
CCOc1ccc(NC(=O)CN(c2ccc(OC)cc2)S(C)(=O)=O)cc1 | inconclusive: -56%
Cc1sc(NC(=O)c2ccccc2)c(C#N)c1-c1ccccc1 | inconclusive: -49.2%
O=c1[nH]c(CSc2nnc(-c3ccncc3)n2Cc2ccco2)nc2ccccc12 | inconclusive: -57.7%
Cc1ccc(S(=O)(=O)N2CCOCC2)cc1NC(=O)COC(=O)c1cc(=O)c2ccccc2o1 | inconclusive: -41.2%
CCc1nccn1S(=O)(=O)c1ccc(OC)c(C)c1C | inconclusive: -61%
CCOC(=O)c1ccc(Oc2c(C)oc3cc(OS(C)(=O)=O)ccc3c2=O)cc1 | inconclusive: -37.1%

— PubChem BioAssay AID2417 (National Center for Advancing Translational Sciences (NCATS), 2010)
